Experimental data as given in patent EP0212532A1, “Method for producing fusion proteins” (SYNTEX (U.S.A.) INC., priority 1985, dated 1987).
Part of at least one peptide drawing is inferred or uncertain, most often the ends.

System: GH3 rat pituitary tumor cells
Assay: GRF binding assay: displacement of [125I]-HuGRF(1-44) and Scatchard analysis
Conditions: 4°C, one hour, 2 x 10^-9 M [125I]-HuGRF(1-44)

CC[C@H](C)[C@H](NC(=O)[C@H](C)NC(=O)[C@H](CC(=O)O)NC(=O)[C@H](C)NC(=O)[C@@H](N)Cc1ccc(O)cc1)C(=O)N[C@@H](Cc1ccccc1)C(=O)N[C@H](C(=O)N[C@@H](CC(N)=O)C(=O)N[C@@H](CO)C(=O)N[C@@H](Cc1ccc(O)cc1)C(=O)N[C@@H](CCCNC(=N)N)C(=O)N[C@@H](CCCCN)C(=O)N[C@H](C(=O)N[C@@H](CC(C)C)C(=O)NCC(=O)N[C@@H](CCC(N)=O)C(=O)N[C@@H](CC(C)C)C(=O)N[C@@H](CO)C(=O)N[C@@H](C)C(=O)N[C@@H](CCCNC(=N)N)C(=O)N[C@@H](CCCCN)C(=O)N[C@@H](CC(C)C)C(=O)N[C@@H](CC(C)C)C(=O)N[C@@H](CCC(N)=O)C(=O)N[C@@H](CC(=O)O)C(=O)N[C@H](C(=O)N[C@@H](CC(C)C)C(=O)N[C@@H](CO)C(=O)N[C@@H](CCCNC(=N)N)C(=O)N[C@@H](CCC(N)=O)C(=O)N[C@@H](CCC(N)=O)C(=O)NCC(=O)N[C@@H](CCC(=O)O)C(=O)N[C@@H](CO)C(=O)N[C@@H](CC(N)=O)C(=O)N[C@@H](CCC(N)=O)C(=O)N[C@@H](CCC(=O)O)C(=O)N[C@@H](CCCNC(=N)N)C(=O)NCC(=O)N[C@@H](C)C(=O)N[C@@H](CCCNC(=N)N)C(=O)N[C@@H](C)C(=O)N[C@@H](CCCNC(=N)N)C(=O)N[C@@H](CC(C)C)C(=O)O)[C@@H](C)CC)C(C)C)[C@@H](C)O [HuGRFLeu27]
reduced affinity (fold) versus synthetic human GRF, receptor binding ability: 2 to 3 fold
